Mtb growth Cornell: 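Whole-cell assay for inhibitors of Mycobacterium tuberculosis growth, labelled Cornell in the record; the read-out is not stated. The concentration is filed as 10 mM, unlikely as a test dose, so the dose is not known. Higher means stronger inhibition (inferred from two other growth screens of the library). Size under these conditions: about 53,000 compounds, about 900 of them at 50% or above in at least one test.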
Mtb heat-shock: 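Assay on Mycobacterium tuberculosis, filed only as a heat shock assay from Cornell; the read-out is not stated. The concentration is filed as 10 mM, unlikely as a test dose, so the dose is not known. Higher reads as stronger inhibition (inferred: compounds with an IC50 in retests scored well above the rest). Of about 69,000 compounds tested this way, about 930 (1.4%) reached 50% or more in at least one test.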

Results are given as percent effect. The controls that fix the scale are not given in the record; negative values are as filed. This is an unselected part of the compounds tested. A dash means the value is not listed here; it may have been measured.

Compound	Mtb growth Cornell	Mtb heat-shock
CC(C)(NCCOc1ccc(CC#N)cc1)c1nccs1	-6.652%	-13.74%
Cc1nc(C)n(C2CCCN(C(=O)CCOC(C)C)C2)n1 (stereo not drawn)	-60.31%	-12.19%
Cc1ccc(NC2CCN(C(=O)c3cccn3C)CC2)nn1	-7.297%	-10.96%
CC(CN1CCCC1=O)NC(=O)c1cc(Cl)c2c(c1)OCO2 (stereo not drawn)	4.75%	7.803%
Cc1cn[nH]c1C1COCCN1C(=O)c1cc(F)ccc1F (stereo not drawn)	-20.75%	-26.38%
O=C(N[C@@H]1CCNC[C@H]1O)c1cc(F)cc(Cl)c1	15.47%	-20.77%
Cc1ccc(S(=O)(=O)N(CCO)C2CC2)cc1N(C)C	-17.49%	-10.65%
[H][C@]12CC[C@]([H])(CN(CC(=O)N(C)C)C1)N(C(=O)c1cccnc1SC)C2	-14.39%	-29.28%
CC(C)c1nnc(CNCC2CCCN2c2cccnn2)o1 (stereo not drawn)	10.99%	-15.29%
Cc1cnc(NC(=O)c2ccc(-n3ncc(C#N)c3N)cc2)s1	-19.41%	15.5%
CC(C)(C)c1cc(C[C@H]2CNCC[C@H]2CC(=O)Nc2ccccc2)no1	6.183%	12.48%
Cc1nnc(SCC(=O)NCc2ccc3c(c2)CCC(=O)N3)n1C	-23.37%	9.51%
COc1nn(C)c2c1CCCN(C(=O)c1cccs1)C2	-9.875%	-0.04419%
COCC(C)(O)CNC(=O)c1cc(-c2cc(OC)ccc2OC)nn1C (stereo not drawn)	11.69%	-20.57%
CCn1nc(C)c(CN(C)S(=O)(=O)c2cnn(C)c2)c1C	14.97%	0.2173%
Cc1ccccc1Cn1cnc2oc(C)c(C(=O)O)c2c1=O	-	16.9%
[H][C@]12CC[C@](O)(c3ccc(C)cc3)[C@@]1([H])CN(S(=O)(=O)c1cn(C)nc1C)C2	5.867%	-2.772%
CCOC(=O)c1sc(NC(=O)C(C)C)c(C#N)c1C	28.69%	17.28%
CO[C@@H]1CO[C@@]2(CCCN(S(=O)(=O)c3ccccc3)C2)C1	7.332%	-18.38%
CCN(CC)C(=O)CNC(=O)N1CCC(c2ccc(OC)cc2)C1 (stereo not drawn)	-	-4.231%
Cl.Cl.c1cncc(OC[C@@H]2CCC[C@@]23CNCCO3)c1	-18.57%	-0.8406%
O=C(Nc1ccc(F)cc1)N(CCC(F)(F)F)C[C@H](O)CO	-	-8.459%
CN1CCC(NC(=O)Nc2ccc(Cl)c(F)c2)C1=O (stereo not drawn)	-18.64%	-1.148%
Cc1nn(C)c(C)c1CN(Cc1cccn1-c1ccccn1)C(C)C	-59.81%	-12.23%
Cn1[nH]c(C2CCC2)c(-c2ccc3c(c2)OCO3)c1=N	6.884%	-33.35%
Cc1cc(C)n(-c2nc(C(=O)NCCS(=O)(=O)N3CCCCC3)cs2)n1	10.52%	17.85%
Cn1nc(Cn2cccn2)c2c1CN(C1CCOC1)C2.O=C(O)C(F)(F)F (stereo not drawn)	-35.93%	-11.41%
O=C(CCc1ncc(-c2ccc(F)cc2)o1)NCCN1CCOCC1	-7.574%	-18.86%
Cc1cnn(CC(C)NCc2ccc(S(C)(=O)=O)cc2)c1 (stereo not drawn)	-	-9.049%
CC(C)COC(C)C(=O)NCc1cc(F)cc(F)c1 (stereo not drawn)	-	16.18%
CN(C)Cc1ccc(C(=O)N2CCCC(COc3ccc(F)cc3)C2)o1 (stereo not drawn)	8.094%	1.225%
CC1CCN(C(=O)C2(Cc3cc(C4CCOC4)no3)CCNCC2)CC1.Cl (stereo not drawn)	7.782%	3.404%
O=C(CCCn1cncn1)N1CCC2(CCCN(CC3CC3)C2=O)C1 (stereo not drawn)	-	-14.43%
CN(C)S(=O)(=O)N1CCC2(COCc3cnc(-c4ccccc4)nc32)C1 (stereo not drawn)	12.14%	15.2%
Cc1nc2ccccc2nc1CN1CCCC1Cn1cccn1 (stereo not drawn)	-20.52%	61.51%
NC(=O)C1CCCN1C1CCN(C(=O)c2cccc3c2OCO3)CC1 (stereo not drawn)	5.831%	1.24%
COc1ccc(CCc2nnc(NC(=O)C3CC34CCC4)s2)cc1OC (stereo not drawn)	26.09%	13.91%
N#Cc1c(SCCN2CCCCC2)sc2c(O)cc(O)nc12	-15.77%	-5.797%
Cc1nnc2n1CCN(CCOc1ccccc1)C2	-	3.618%
O=C(NCc1cc(-c2ccccc2)no1)NCC1CCCO1 (stereo not drawn)	1.773%	5.703%
O=C(NCC(c1ccc(F)cc1)N1CCOCC1)Nc1cn[nH]c1 (stereo not drawn)	-	-11.56%
Cc1nn(C)c(C)c1C(=O)N1CCN(C(=O)CCC2CCCCC2)CC1	29.92%	-23.15%
COCC1CC2(CCN(Cc3cccnc3)CC2)CN1C(C)C (stereo not drawn)	25.66%	-34.79%
O=C(O)CNC(=O)Cc1csc(-c2ccccc2F)n1	-35.54%	-9.042%
COCCN(CCOC)c1ncccc1Cl	-11.67%	14.33%
CC(Nc1nc2c(cnn2C)c(=O)[nH]1)c1ccc(F)cc1 (stereo not drawn)	46.54%	-12.33%
O=C(CCc1cnn(-c2ccccc2)c1)N1CCCC(n2cccn2)C1 (stereo not drawn)	-	6.435%
CC(=O)N1CCOC(CNC(=O)c2cccc(CCC(C)(C)O)c2)C1 (stereo not drawn)	-	-40.71%
CS(=O)(=O)N1CCCCCC1C1CCN(Cc2nc(C3CC3)no2)CC1 (stereo not drawn)	-2.443%	-2.036%
[H][C@]12CN(S(=O)(=O)c3ccc(C(=O)NC[C@H]4CCCO4)cc3)[C@]([H])(CN1)C2	3.805%	-49.43%
CC(C)c1nnc2n1CCN(Cc1nc3c(F)cccc3[nH]1)C2	6.626%	-4.232%
Cc1cnc(C(=O)N2CCCC(c3c(C)c(=O)nc4n3CCC4)C2)cn1.Cl (stereo not drawn)	-4.938%	-2.984%
Cc1ccc(C2=CCN(C(=O)C3CCN(C)C(=O)C3)CC2)cc1 (stereo not drawn)	0.4619%	0.2317%
FC(F)(F)c1nc(NC2CCCC2)c2ccccc2n1	45.03%	9.487%
Cc1ccc(C(=O)NCCCN(C)S(C)(=O)=O)cc1-n1cccc1	-	43.17%
CCN(CC)C(=O)c1cc(C2CCCN2C)ccn1.O=CO (stereo not drawn)	7.058%	-2.14%
Cc1ccc(CNC(=O)Nc2nncs2)cn1	-	-4.164%
COCc1nc(CN2CC(C)(c3ccccc3)CCC2=O)no1 (stereo not drawn)	-23.15%	-5.899%
Cc1nc(N2CCN(C(=O)c3cccs3)CC2)cc(-n2cccc2)n1	12.77%	-18.83%
CCOc1ccc(-c2nc(CN(C)Cc3c(C)noc3C)cs2)cc1	15.37%	24.79%
[H][C@@]12CCN(C(=O)c3cnccn3)C[C@@]1([H])O[C@H](c1nc(C)cs1)C2	17.17%	-18.76%
CC(C)NC(=O)N1CCC[C@H]1C(=O)NCCCc1cccc(F)c1	-6.686%	5.606%
Cn1nnnc1SC1CCCN(c2cccc(F)c2)C1=O (stereo not drawn)	-21.72%	-29.56%
CCC[C@H]1CN(Cc2cc(C)no2)C[C@@H]1NC(=O)C1(COC)CCC1	10.39%	0.2444%
CC(C)Nc1cccc(CC2CCN(S(C)(=O)=O)CC2)n1	-7.221%	3.882%
Cc1ccc([C@@H]2CN(S(=O)(=O)c3cccs3)C[C@H]2N(C)C)cc1	15.41%	5.502%
COc1ccc(CN2CCCn3cnc(COCC4CC4)c3C2)cc1.O=C(O)C(F)(F)F	8.577%	-10.43%
CC(Nc1cccc(CN2CCOC2=O)c1)C(=O)NC(N)=O (stereo not drawn)	-1.884%	-3.658%
Cc1nn(C)c(N2CCOCC2)c1CNC1CCS(=O)(=O)C1 (stereo not drawn)	18.4%	26.73%

Measurements from “University of Dundee, Small-Polar-MMV Screening Library” (2021), ChEMBL document CHEMBL3988442.